The target in test [1] is Pyk2-Flag (proline-rich tyrosine kinase 2) (UniProt Q14289). The test can be described thus: co-IP; extracts (1 mg, RIPA buffer) of HEK293T cells 48 h after transfection; immunoprecipitated with anti-FAK or anti-FLAG M2 (1 ug) for 24 h, Protein G magnetic beads 1 h at 4 C; Western blot; normal rabbit or mouse IgG as control. On the technique in general: A western blot detects proteins with antibodies after separation by electrophoresis.

The chains behind the UniProt entries cited, without tags or fusion partners.
UniProt Q14289: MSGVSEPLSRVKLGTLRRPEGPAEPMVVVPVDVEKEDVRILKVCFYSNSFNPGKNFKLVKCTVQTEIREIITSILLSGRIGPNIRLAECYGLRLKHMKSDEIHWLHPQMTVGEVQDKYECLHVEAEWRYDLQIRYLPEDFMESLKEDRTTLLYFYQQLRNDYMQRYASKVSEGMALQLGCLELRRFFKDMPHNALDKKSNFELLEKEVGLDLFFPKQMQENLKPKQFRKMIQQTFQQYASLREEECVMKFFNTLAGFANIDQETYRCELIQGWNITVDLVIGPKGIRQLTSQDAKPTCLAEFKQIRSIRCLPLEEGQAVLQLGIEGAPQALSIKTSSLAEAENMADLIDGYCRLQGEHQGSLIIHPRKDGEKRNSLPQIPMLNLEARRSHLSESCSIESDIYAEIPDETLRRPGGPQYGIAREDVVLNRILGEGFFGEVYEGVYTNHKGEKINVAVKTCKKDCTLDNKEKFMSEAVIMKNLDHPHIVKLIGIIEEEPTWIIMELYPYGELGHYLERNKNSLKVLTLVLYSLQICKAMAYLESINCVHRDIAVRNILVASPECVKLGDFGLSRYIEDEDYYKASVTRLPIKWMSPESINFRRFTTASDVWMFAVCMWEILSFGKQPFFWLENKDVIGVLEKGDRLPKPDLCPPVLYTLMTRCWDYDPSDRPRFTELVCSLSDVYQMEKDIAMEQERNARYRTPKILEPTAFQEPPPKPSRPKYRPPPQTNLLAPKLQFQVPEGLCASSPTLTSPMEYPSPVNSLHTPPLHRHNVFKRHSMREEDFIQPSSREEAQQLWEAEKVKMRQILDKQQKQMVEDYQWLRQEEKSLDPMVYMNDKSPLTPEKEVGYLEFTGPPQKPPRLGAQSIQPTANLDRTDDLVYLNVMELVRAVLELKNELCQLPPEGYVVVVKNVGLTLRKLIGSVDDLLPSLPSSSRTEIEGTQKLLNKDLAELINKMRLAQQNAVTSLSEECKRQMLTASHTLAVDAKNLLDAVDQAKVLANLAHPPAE
UniProt Q05397: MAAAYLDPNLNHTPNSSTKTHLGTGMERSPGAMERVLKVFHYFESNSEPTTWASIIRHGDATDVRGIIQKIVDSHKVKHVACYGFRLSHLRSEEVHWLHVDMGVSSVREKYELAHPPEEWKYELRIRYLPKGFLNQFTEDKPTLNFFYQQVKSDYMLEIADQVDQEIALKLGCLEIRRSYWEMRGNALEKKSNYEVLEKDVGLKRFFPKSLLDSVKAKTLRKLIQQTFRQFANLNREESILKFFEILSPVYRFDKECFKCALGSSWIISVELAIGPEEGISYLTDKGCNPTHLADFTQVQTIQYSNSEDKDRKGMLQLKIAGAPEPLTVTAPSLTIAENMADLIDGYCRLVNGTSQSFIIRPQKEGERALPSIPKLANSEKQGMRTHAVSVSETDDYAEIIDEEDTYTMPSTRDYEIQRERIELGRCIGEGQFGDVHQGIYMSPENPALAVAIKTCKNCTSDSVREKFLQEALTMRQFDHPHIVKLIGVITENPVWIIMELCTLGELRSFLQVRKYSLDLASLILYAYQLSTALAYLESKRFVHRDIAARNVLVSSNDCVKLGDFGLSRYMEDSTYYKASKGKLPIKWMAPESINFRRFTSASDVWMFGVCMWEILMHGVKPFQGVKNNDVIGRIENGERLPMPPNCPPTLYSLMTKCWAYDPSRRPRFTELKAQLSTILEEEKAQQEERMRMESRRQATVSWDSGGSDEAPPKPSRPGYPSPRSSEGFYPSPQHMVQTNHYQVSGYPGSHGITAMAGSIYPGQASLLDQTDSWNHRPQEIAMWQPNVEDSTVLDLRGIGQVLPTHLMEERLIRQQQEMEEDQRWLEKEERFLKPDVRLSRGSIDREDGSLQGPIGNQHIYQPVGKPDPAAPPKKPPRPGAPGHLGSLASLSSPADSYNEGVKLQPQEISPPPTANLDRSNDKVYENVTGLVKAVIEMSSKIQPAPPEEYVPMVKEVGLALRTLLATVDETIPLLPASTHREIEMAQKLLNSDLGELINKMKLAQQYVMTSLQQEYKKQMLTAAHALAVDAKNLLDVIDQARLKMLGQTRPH
UniProt Q9ULZ3: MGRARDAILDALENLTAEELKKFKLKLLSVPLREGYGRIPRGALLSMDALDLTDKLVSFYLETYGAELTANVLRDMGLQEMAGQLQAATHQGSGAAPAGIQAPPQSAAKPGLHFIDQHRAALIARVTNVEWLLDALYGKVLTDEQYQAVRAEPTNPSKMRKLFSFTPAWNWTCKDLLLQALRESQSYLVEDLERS

In test [2] the target is FAK (focal adhesion kinase), endogenous in HEK293T (human (endogenous in HEK293T)) (UniProt Q05397). The description is as above.
In test [3] the target is p-Pyk2 (phosphorylated Pyk2, Tyr402), endogenous in THP-1 (human (endogenous in THP-1)) (UniProt Q14289). The test can be described thus: proximity ligation; in situ PLA (Duolink) in ASC-mCherry-expressing THP-1 cells, unstimulated or stimulated with nigericin (1 h) or poly(dA:dT) (4 h); probes rabbit anti-p-FAK or anti-p-Pyk2 with mouse anti-mCherry; confocal microscopy.

Results are given in words; binding and its absence hold for the method and conditions named. In cells and extracts the contact can be indirect. Some binding calls cover weakened binding; strength is not graded here.

On to “ASC (untagged wild type, overexpressed) (from UniProt Q9ULZ3 1-195)”, for which the binding entry in test [1] is given as “binds”.

On to “ASC-Flag (apoptosis-associated speck-like protein containing CARD, wild type) (from UniProt Q9ULZ3 1-195)”, for which the binding entry in test [2] is listed as “binds”.

On to ASC-mCherry (from UniProt Q9ULZ3 1-195), for which the binding entry in test [3] is “binds”.
